Laboratory results taken from publication PMC11612967.
These are yes or no findings as the source states them, for the method shown. In cells and extracts the contact can be indirect. Some entries that bind do so weakly or less than the wild type.

Sequences of proteins named here, by UniProt entry; tags and fusion partners are left off.
UniProt Q8IY18: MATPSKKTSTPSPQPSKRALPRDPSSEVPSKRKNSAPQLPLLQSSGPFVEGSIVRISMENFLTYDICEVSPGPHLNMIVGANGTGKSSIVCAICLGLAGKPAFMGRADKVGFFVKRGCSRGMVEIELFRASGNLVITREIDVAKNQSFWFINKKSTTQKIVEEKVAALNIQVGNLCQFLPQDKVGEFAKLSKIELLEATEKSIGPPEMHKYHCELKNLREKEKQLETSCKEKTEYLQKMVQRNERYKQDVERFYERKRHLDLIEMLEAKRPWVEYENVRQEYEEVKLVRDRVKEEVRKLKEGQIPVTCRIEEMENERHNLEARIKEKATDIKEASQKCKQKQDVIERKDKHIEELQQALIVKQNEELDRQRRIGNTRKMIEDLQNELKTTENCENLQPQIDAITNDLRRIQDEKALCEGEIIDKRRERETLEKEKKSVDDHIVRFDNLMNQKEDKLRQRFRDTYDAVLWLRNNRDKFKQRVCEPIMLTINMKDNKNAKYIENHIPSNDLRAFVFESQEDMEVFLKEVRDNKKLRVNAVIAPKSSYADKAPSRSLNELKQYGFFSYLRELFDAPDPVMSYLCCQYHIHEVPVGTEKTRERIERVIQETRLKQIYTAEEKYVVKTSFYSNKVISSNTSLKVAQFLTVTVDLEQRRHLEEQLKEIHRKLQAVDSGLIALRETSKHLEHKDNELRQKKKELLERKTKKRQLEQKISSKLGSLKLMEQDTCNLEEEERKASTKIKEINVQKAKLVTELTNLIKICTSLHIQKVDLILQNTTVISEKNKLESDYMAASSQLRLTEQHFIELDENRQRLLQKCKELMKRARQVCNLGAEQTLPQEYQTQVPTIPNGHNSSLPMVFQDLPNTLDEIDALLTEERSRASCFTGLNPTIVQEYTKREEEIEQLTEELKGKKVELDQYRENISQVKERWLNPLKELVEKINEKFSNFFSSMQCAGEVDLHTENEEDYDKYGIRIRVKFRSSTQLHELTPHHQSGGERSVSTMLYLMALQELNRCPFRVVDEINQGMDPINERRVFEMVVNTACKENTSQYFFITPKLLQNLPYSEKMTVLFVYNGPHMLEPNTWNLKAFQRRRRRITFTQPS

What was measured:
[1] = molecular target: T1, S. cerevisiae Nse3 (S. cerevisiae), Q05541; assay: pull-down; S. cerevisiae Smc5/6 subunits co-expressed in E. coli Rosetta (DE3), one subunit with a Twin-Strep tag (N- or C-terminal); clarified lysate on Strep-Tactin Sepharose, 1 h at 4°C, 50 mM Tris-HCl pH 7.5, 300 mM NaCl, 5% glycerol; eluted with 2.5 mM desthiobiotin; Coomassie-stained SDS-PAGE; details: remark: other sources report otherwise
T1 chain: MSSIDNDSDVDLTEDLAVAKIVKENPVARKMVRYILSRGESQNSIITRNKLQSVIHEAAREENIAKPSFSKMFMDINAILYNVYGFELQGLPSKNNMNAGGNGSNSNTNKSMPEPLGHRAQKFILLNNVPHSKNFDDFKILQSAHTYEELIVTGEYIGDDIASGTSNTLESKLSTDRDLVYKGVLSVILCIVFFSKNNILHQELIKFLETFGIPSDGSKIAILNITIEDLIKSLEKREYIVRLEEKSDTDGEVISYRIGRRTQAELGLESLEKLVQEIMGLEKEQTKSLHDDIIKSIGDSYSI

[2] = molecular target: T2, S. cerevisiae Nse1 (S. cerevisiae), Q07913; assay: as above; details: remark: other sources report otherwise
T2 chain: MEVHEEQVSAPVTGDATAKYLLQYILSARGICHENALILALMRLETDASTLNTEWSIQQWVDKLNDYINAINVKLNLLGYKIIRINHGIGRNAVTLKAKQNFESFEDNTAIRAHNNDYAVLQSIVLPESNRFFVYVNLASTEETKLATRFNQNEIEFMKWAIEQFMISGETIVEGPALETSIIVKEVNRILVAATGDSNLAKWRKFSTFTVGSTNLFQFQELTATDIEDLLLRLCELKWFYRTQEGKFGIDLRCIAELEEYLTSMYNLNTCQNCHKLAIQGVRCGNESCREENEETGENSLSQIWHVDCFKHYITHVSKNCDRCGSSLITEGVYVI

[3] = molecular target: T3, S. cerevisiae Nse4 (S. cerevisiae), P43124; assay: as above; details: remark: other sources report otherwise
T3 chain: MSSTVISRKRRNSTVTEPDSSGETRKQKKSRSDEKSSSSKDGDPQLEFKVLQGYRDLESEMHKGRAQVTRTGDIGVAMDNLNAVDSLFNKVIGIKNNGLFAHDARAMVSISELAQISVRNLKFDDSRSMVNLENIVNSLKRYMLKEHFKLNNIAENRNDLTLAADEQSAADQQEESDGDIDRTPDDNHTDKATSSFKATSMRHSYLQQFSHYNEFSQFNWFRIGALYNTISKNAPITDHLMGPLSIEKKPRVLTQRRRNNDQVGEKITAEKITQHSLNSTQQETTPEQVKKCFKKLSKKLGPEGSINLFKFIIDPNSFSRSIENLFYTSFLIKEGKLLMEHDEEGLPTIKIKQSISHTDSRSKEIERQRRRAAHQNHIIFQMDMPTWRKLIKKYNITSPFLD

[4] = molecular target: H. sapiens Smc5 (H. sapiens) (UniProt Q8IY18); assay: pull-down; H. sapiens Smc5/6 subunits co-expressed in transfected HEK293 cells (10-ml scale), one subunit tagged (N- or C-terminal); lysis buffer with Benzonase and protease inhibitors, processed as for the small-scale expression in E. coli; Coomassie-stained SDS-PAGE
[5] = molecular target: T4, H. sapiens Nse1 (H. sapiens) (UniProt Q8WV22); assay: as above
T4 sequence: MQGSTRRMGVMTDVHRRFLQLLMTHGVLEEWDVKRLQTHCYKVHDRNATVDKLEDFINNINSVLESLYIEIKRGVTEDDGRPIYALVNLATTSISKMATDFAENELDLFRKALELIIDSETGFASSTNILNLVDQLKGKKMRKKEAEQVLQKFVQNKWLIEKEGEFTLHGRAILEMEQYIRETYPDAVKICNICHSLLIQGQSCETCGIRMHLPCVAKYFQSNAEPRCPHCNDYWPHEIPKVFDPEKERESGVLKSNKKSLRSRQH

[6] = molecular target: T5, H. sapiens Nse3 (H. sapiens) (UniProt Q96MG7); assay: as above
T5 sequence: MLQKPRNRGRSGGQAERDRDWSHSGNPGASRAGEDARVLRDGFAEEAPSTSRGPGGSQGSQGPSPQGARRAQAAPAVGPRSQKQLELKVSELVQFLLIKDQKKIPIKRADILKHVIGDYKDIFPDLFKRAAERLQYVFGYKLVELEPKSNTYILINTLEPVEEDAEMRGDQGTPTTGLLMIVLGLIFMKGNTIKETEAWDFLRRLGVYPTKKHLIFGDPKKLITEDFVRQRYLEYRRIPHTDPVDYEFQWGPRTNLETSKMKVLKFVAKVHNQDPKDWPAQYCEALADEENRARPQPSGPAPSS

[7] = molecular target: T6, H. sapiens Smc6 (H. sapiens) (UniProt Q96SB8); assay: as above
T6 sequence: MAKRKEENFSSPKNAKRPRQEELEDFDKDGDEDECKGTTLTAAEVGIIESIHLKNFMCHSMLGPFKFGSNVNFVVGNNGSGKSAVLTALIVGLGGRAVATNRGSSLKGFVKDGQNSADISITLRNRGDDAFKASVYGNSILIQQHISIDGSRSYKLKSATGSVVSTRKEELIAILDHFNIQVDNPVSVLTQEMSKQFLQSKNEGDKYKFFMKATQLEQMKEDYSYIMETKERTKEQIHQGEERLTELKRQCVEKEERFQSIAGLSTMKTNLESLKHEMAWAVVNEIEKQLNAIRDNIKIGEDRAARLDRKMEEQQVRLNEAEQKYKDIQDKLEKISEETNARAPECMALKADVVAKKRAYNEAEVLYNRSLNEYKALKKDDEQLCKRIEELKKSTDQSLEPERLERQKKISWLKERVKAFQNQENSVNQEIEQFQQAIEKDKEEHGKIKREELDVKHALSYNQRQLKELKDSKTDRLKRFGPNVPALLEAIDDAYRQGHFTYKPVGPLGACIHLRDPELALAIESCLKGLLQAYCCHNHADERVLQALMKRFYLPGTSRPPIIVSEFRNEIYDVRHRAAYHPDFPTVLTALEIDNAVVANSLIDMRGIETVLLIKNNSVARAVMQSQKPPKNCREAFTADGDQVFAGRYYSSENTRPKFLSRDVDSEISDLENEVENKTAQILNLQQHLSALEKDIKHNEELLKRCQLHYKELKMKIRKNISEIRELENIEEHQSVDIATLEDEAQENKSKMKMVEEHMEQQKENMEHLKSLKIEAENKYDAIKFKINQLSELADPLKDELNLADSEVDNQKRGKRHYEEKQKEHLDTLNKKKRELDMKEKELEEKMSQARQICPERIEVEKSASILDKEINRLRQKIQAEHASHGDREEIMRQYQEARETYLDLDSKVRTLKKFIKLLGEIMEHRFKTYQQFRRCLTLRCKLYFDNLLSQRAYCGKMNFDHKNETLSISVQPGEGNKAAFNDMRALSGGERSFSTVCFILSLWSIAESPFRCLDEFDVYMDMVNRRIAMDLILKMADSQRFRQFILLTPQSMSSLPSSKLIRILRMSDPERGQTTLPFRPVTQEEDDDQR

[8] = molecular target: T7, H. sapiens Nse2 (H. sapiens) (UniProt Q96MF7); assay: as above
T7 sequence: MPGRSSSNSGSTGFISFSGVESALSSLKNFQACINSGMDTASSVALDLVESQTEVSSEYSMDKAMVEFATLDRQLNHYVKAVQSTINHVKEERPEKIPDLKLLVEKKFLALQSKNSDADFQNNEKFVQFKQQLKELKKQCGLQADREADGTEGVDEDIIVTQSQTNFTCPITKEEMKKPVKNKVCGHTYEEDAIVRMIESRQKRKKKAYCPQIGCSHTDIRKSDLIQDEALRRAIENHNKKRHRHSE

Measured: binding

B1: S. cerevisiae Nse2, P38632 1-267 (protein)
chain: MALNDNPIPKSVPLHPKSGKYFHNLHARDLSNIYQQCYKQIDETINQLVDSTSPSTIGIEEQVADITSTYKLLSTYESESNSFDEHIKDLKKNFKQSSDACPQIDLSTWDKYRTGELTAPKLSELYLNMPTPEPATMVNNTDTLKILKVLPYIWNDPTCVIPDLQNPADEDDLQIEGGKIELTCPITCKPYEAPLISRKCNHVFDRDGIQNYLQGYTTRDCPQAACSQVVSMRDFVRDPIMELRCKIAKMKESQEQDKRSSQAIDVL
binds: [1] | [2] | [3]

B2: H. sapiens Nse2 (protein, UniProt Q96MF7 1-247)
chain: MPGRSSSNSGSTGFISFSGVESALSSLKNFQACINSGMDTASSVALDLVESQTEVSSEYSMDKAMVEFATLDRQLNHYVKAVQSTINHVKEERPEKIPDLKLLVEKKFLALQSKNSDADFQNNEKFVQFKQQLKELKKQCGLQADREADGTEGVDEDIIVTQSQTNFTCPITKEEMKKPVKNKVCGHTYEEDAIVRMIESRQKRKKKAYCPQIGCSHTDIRKSDLIQDEALRRAIENHNKKRHRHSE
binds: [4] | [5] | [6] | [7]

B3: H. sapiens Nse3 (protein, UniProt Q96MG7 1-304)
chain: MLQKPRNRGRSGGQAERDRDWSHSGNPGASRAGEDARVLRDGFAEEAPSTSRGPGGSQGSQGPSPQGARRAQAAPAVGPRSQKQLELKVSELVQFLLIKDQKKIPIKRADILKHVIGDYKDIFPDLFKRAAERLQYVFGYKLVELEPKSNTYILINTLEPVEEDAEMRGDQGTPTTGLLMIVLGLIFMKGNTIKETEAWDFLRRLGVYPTKKHLIFGDPKKLITEDFVRQRYLEYRRIPHTDPVDYEFQWGPRTNLETSKMKVLKFVAKVHNQDPKDWPAQYCEALADEENRARPQPSGPAPSS
binds: [4] | [5] | [7] | [8]

B4: H. sapiens Nse1 (protein, UniProt Q8WV22 1-266)
chain: MQGSTRRMGVMTDVHRRFLQLLMTHGVLEEWDVKRLQTHCYKVHDRNATVDKLEDFINNINSVLESLYIEIKRGVTEDDGRPIYALVNLATTSISKMATDFAENELDLFRKALELIIDSETGFASSTNILNLVDQLKGKKMRKKEAEQVLQKFVQNKWLIEKEGEFTLHGRAILEMEQYIRETYPDAVKICNICHSLLIQGQSCETCGIRMHLPCVAKYFQSNAEPRCPHCNDYWPHEIPKVFDPEKERESGVLKSNKKSLRSRQH
binds: [4] | [6] | [7] | [8]
